Experimental data: patent US20160175306A1, “COMBINATION OF A IMIDAZOPYRIDAZINE DERIVATIVE AND A MITOTIC AGENT FOR THE TREATMENT OF CANCER” (BAYER PHARMA AKTIENGESELLSCHAFT, priority 2013, published 2016)
Some of these results come from one statement about several compounds together.

Tested on: rat hepatocytes
Assay: In vitro metabolic stability in rat hepatocytes
Assay type: in vitro ADME
Settings: 1 μM test compound, calculated from half-life
Protocol: Investigation of In Vitro Metabolic Stability in Rat Hepatocytes (Including Calculation of Hepatic In Vivo Blood Clearance (CL))
Hepatocytes from Han Wistar rats were isolated via a 2-step perfusion method. After perfusion, the liver was carefully removed from the rat: the liver capsule was opened and the hepatocytes were gently shaken out into a Petri dish with ice-cold WME. The resulting cell suspension was filtered through sterile gaze in 50 ml falcon tubes and centrifuged at 50×g for 3 min at room temperature.
The cell pellet was resuspended in 30 ml WME and centrifuged through a Percoll® gradient for 2 times at 100×g. The hepatocytes were washed again with Williams' medium E (WME) and resuspended in medium containing 5% FCS. Cell viability was determined by trypan blue exclusion.
For the metabolic stability assay liver cells were distributed in WME containing 5% FCS to glass vials at a density of 1.0×10^6 vital cells/m. […] Samples were frozen at −20° C. over night, after subsequently centrifuged for 15 minutes at 3000 rpm and the supernatant was analyzed with an Agilent 1200 HPLC-system with LCMS/MS detection.
The half-life of a test compound was determined from the concentration-time plot. From the half-life the intrinsic clearances were calculated. […] The hepatic in vivo blood clearance (CL) and the maximal oral bioavailability (Fmax) was calculated. […]

COc1ccc(Oc2cc(NCC3CCOCC3)c3ncc(-c4ccc(C(=O)NC5CC5)c(C)c4)n3n2)c(F)c1F [Compound A28, N-cyclopropyl-4-{6-(2,3-difluoro-4-methoxyphenoxy)-8-[(tetrahydro-2H-pyran-4-ylmethyl)amino]imidazo[1,2-b]pyridazin-3-yl}-2-methylbenzamide]
Fmax (maximal oral bioavailability): ≥ 39%

COc1ccc(Oc2cc(NCC3COC3)c3ncc(-c4ccc(C(=O)NC5CC5)c(C)c4)n3n2)cc1F [Compound A26, N-cyclopropyl-4-{6-(3-fluoro-4-methoxyphenoxy)-8-[(oxetan-3-ylmethyl)amino]imidazo[1,2-b]pyridazin-3-yl}-2-methylbenzamide]
Fmax (maximal oral bioavailability): ≥ 39%
